According to paper PMC3000357 (PLoS Genetics, 2010):
Results are given in words; binding and its absence hold for the method and conditions named. Binding seen in cells or lysates may run through a third protein. A yes stands for co-enrichment or nearness to the bait. Other partners may have been found.

How the values were obtained:
[1] = target: T1, RecS-SPA (Bacillus subtilis) (UniProt P50729); assay: affinity purification with mass spectrometry; Tap-tag: tandem affinity purification of C-terminal SPA fusions expressed from their original locus in B. subtilis; SDS-PAGE, Coomassie, bands identified by MALDI-TOF
T1 sequence: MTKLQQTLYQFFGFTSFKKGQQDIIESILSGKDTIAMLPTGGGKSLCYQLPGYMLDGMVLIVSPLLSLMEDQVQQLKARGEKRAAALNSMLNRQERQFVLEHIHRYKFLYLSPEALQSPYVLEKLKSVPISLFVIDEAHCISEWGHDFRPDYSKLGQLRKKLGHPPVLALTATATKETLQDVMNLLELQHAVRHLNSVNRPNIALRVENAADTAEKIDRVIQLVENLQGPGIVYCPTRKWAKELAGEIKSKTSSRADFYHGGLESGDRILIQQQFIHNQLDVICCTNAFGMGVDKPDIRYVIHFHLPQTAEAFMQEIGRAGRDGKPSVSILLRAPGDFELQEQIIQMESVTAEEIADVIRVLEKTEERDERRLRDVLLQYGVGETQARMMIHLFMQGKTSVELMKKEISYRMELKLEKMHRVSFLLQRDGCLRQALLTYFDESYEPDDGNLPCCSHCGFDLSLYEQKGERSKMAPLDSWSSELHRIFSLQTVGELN

[2] = target: T2, PcrA-SPA (Bacillus subtilis), O34580; assay: as above; conditions: remark: other sources report otherwise
T2 chain: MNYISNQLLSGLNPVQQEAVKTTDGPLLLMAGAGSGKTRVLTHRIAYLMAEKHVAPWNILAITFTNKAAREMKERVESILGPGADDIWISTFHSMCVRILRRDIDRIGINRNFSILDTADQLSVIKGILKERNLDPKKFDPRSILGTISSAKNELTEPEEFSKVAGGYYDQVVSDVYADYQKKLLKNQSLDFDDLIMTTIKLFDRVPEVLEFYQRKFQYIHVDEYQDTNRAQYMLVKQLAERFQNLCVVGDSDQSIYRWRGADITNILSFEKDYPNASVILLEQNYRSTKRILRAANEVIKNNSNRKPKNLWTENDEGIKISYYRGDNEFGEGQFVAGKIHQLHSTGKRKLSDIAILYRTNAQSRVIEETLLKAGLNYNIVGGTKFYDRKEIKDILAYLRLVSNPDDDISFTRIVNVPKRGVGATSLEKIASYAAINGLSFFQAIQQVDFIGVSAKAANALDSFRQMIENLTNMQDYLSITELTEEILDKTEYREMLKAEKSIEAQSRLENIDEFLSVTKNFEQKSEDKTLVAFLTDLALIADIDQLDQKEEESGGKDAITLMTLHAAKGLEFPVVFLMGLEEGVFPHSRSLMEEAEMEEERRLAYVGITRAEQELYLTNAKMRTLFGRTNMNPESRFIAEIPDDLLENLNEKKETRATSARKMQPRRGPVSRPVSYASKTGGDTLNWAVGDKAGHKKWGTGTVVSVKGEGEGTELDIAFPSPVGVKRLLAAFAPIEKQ

[3] = target: hetero-tetrameric SSB/SSB-SPA complexes (Bacillus subtilis | Bacillus subtilis (endogenous in B. subtilis)); assay: affinity purification with mass spectrometry; Tap-tag of SSB-SPA expressed from Pxyl at amyE beside wild-type SSB, cells grown with or without 0.2% D-xylose; control strain with wild-type ssb at amyE; SDS-PAGE, Coomassie, MALDI-TOF

B1: YpbB, produced in E. coli with RecS (natural protein, Bacillus subtilis, UniProt P50728 1-352, looked up)
chain: MSLNYFDIMVLDCLCKINGERSGSAVFHLFKGKRSSQTIQDAGLFQTAKYFGMAAKCSRSDISASLDKLEKHSYLAPMSESDTYKVTASGAAVLRHALSERPWPVHCHGAHYQQAAGVLWKRLSLLVQVLSHKQQGSRQYIPVTKDHKTLHWVKKYLSRHTDHIEMAKSLFAMLEAHLKKIENKAAQIFVYSLTSHHRIGYTSRQLADTLKEDEWYVYIMFWASVHYFIHSLPECEDALLKDLLSDVHLDNALTESTRKTWQMVKQGFPIQRIAEIRKLKTATIEDHIVEISLHEPAFMINDYVSAEDQLQIAEFAKRMRTNKIKQIRDGLEQRFSYFQIRLALTKQVQQYD
notes: YpbB, protein of unknown function of Bacillus subtilis, encoded immediately upstream of recS; Could not be prepared as a soluble protein alone; source: E. coli, purified only as a complex with RecS (procedure in Text S1)
In the case of B1, the binding [1] is reported as “binds”.

B2: RecA, endogenous in B. subtilis, P16971 1-348 (protein)
chain: MSDRQAALDMALKQIEKQFGKGSIMKLGEKTDTRISTVPSGSLALDTALGIGGYPRGRIIEVYGPESSGKTTVALHAIAEVQQQGGQAAFIDAEHALDPVYAQKLGVNIEELLLSQPDTGEQALEIAEALVRSGAVDIVVVDSVAALVPKAEIEGDMGDSHVGLQARLMSQALRKLSGAINKSKTIAIFINQIREKVGVMFGNPETTPGGRALKFYSSVRLEVRRAEQLKQGNDVMGNKTKIKVVKNKVAPPFRTAEVDIMYGEGISKEGEIIDLGTELDIVQKSGSWYSYEEERLGQGRENAKQFLKENKDIMLMIQEQIREHYGLDNNGVVQQQAEETQEELEFEE
For B2, the binding [2] was “binds”.

B3: RecQ, endogenous in B. subtilis (enzyme, UniProt O34748 1-591)
chain: MLHRAQSLLAHYFGYEKFRSGQDEAIRLVTEARQNTACIMPTGGGKSICYQIPALMFEGTTIVISPLISLMKDQVDALEEAGINAAYINSTQSNQEIYERLNGLKEGAYKLFYITPERLTSIEFIRILQGIDVPLVAIDEAHCISQWGHDFRPSYRNIEILFRELHDKPVIMALTATATPEVHDDICKQLHIQKENTVYTGFSRENLTFKVVKGENKDRFIDEYVQNNRHEAGIVYTATRKEADRIYERLKRNQVRAGRYHGGLADDVRKEQQERFLNDELQVMVATSAFGMGIDKSNIRFVLHAQIPKDMESYYQEAGRAGRDGLASECVLLFSPQDIMVQRFLIEQSEHEEKQKQDLKKLRQMVDYCHTEDCLQRFILMYFGEKEPDACGQCGNCTDTRAAHDVTREAQMVLSCIIRMKERFGKTMVAQVLAGSKNKKVLENGFSDLSTYGILKHQSVGEISDFIEFLISDDFIRMSDGTFPTLFVSSKGRNVLKGELSVARKEALKAAAITENDELFERLRMVRKEIAAEQGVPPFVVFSDQTLKEMSGKQPVNDDELLSIKGVGEQKRAKYGRLFLQEIQAYARMTD
For B3, the binding [3] was “binds”.

B4: RecG, endogenous in B. subtilis (enzyme, UniProt O34942 1-682)
chain: MKQHQQTSIANIKGIGPETEKTLNELGIYDISDLLNYFPYRYDDYELRDLEEVKHDERVTVEGKVHSEPSLTYYGKKRNRLTFRLLVGHYLITAVCFNRPYLKKKLSLGSVVTVSGKWDKHRQTISVQELKNGPHQEDKSIEPVYSVKENVTVKMMRRFIQQALTQYADSLPDPLPEKLRKSYKLPDYYQALKAMHQPETREALKLARRRFVYEEFLLFQLKMQAFRKAEREQTQGIRQRFSNEELMRFIKSLPFPLTNAQSRVLREITADMSSPYRMNRLLQGDVGSGKTAVAAIALYAAILSGYQGALMVPTEILAEQHADSLVSLFEKWDVSVALLTSSVKGKRRKELLERLAAGEIDILVGTHALIQDEVEFKALSLVITDEQHRFGVEQRKKLRNKGQDPDVLFMTATPIPRTLAITVFGEMDVSVIDEMPAGRKRIETYWVKHDMLDRILAFVEKELKQGRQAYIICPLIEESDKLDVQNAIDVYNMLSDIFRGKWNVGLMHGKLHSDEKDQVMREFSANHCQILVSTTVVEVGVNVPNATIMVIYDADRFGLSQLHQLRGRVGRGEHQSFCILMADPKSETGKERMRIMSETNDGFELSEKDLELRGPGDFFGKKQSGMPEFKVADMVHDYRALETARQDAANLVASDAFWKEPEYAVLRDELLKSGVMDGEKLS
In the case of B4, the binding [3] is reported as “binds”.

B5: RarA, endogenous in B. subtilis (protein, UniProt O34528 1-421)
chain: MKPLAYRMRPTKIEDIIGQQHLVAEDKIIGRMVQAKHLSSMILYGPPGIGKTSIATAIAGSTSIAFRKLNAVINNKKDMEIVAQEAKMSGQVILILDEVHRLDKGKQDFLLPYLENGMIILIGATTANPYHAINPAIRSRTQIFELEPLTPELIKQALERALHDEHRGLGTYSVSIDDQAMEHFAHGCGGDVRSALNALELAVLSTKESADGEIHITLETAEECLQKKSFSHDKDGDAHYDVLSAFQKSIRGSDANAALHYLARLIEAGDLESIARRLLVIAYEDIGLASPQAGPRVLNAIQTAERVGFPEARIPLANAVIELCLSPKSNSAILAIDEALADIRAGKIGDVPKHLKDAHYKGAQELGRGIDYKYPHNYDNGWVEQQYLPDPLKNKQYYKPKQTGKFESALKQVYDKLMKRK
For B5, the binding [3] was “binds”.

B6: XseA, endogenous in B. subtilis (protein, UniProt P54521 1-448)
chain: MGEAAYVTVSALTKYIKRKFDVDPHLENIWIKGELSNVKIHTRGHIYFTLKDENARMQSVMFARQSERLPFKPENGMKVLVRGGISVYEPSGNYQLYAKEMQPDGVGALYLAYEELKKKLAGEGLFDDRYKKQIPAFPATIGVVTSPTGAAVRDVITTLKRRYPLVKVIVLPALVQGENASRSIVTRIEEANEKEICDVLIVGRGGGSIEELWAFNEEIVARAIFASNIPIISAVGHETDFTISDFVADIRAATPTGAAEIAVPHTTDLIERTKTAEVRMTRAMQQHLGQKKERIQTLQSSYAFRFPKRLYAQKEQQFDLAYQQFQAQLTALLDRKSRQLERETYRLEALHPHEQLKQARTRYQEQTNQLRKNMNIQMKQLHSQFQTVLGKLNALSPLQVMERGYSLAYKEDKLIKSVSQIEEQDRLEIKLKDGVLTCEVLEKRGEEK
In the case of B6, the binding [3] is reported as “binds”.

B7: Ung, endogenous in B. subtilis (enzyme, UniProt P39615 1-225)
chain: MKQLLQDSWWNQLKEEFEKPYYQELREMLKREYAEQTIYPDSRDIFNALHYTSYDDVKVVILGQDPYHGPGQAQGLSFSVKPGVKQPPSLKNIFLELQQDIGCSIPNHGSLVSWAKQGVLLLNTVLTVRRGQANSHKGKGWERLTDRIIDVLSERERPVIFILWGRHAQMKKERIDTSKHFIIESTHPSPFSARNGFFGSRPFSRANAYLEKMGEAPIDWCIKDL
With B7 the binding [3] was “binds”.
